Laboratory results: PMC4503874
These are yes or no findings as the source states them, for the method shown. Some entries that bind do so weakly or less than the wild type.

Columns and labels:
[1] = molecular target: T1, CONSTITUTIVELY PHOTOMORPHOGENIC 1 (Arabidopsis thaliana) (UniProt P43254); experiment: two-hybrid; yeast PJ69-4a co-transformed with AD and BD vectors, SD -L/-T, white light without UV-B; quantified by beta-galactosidase (ONPG) activity
T1 sequence: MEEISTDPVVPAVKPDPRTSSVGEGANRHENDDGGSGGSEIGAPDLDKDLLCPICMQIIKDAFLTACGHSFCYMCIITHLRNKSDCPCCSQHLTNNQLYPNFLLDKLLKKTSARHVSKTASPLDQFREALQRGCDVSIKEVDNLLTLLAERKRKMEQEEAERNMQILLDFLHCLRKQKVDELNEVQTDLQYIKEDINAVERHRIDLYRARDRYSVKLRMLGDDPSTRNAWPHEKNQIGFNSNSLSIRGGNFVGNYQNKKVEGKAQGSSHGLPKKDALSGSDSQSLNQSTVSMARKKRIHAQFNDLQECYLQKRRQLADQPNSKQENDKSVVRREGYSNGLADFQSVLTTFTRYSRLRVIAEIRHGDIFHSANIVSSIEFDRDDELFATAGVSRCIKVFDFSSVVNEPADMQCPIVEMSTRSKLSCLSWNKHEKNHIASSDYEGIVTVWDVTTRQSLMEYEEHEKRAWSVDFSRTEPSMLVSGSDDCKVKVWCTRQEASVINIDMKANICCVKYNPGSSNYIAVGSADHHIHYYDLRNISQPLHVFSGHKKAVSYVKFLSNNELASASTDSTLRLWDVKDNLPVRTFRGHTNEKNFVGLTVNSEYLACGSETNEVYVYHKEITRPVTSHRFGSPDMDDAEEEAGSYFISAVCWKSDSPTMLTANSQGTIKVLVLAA

[2] = molecular target: ARIADNE12 (Arabidopsis thaliana) (UniProt Q84RQ9); experiment: as above
[3] = molecular target: T2, UV … LOCUS 8 (Arabidopsis thaliana) (UniProt Q9FN03); experiment: as above
T2 sequence: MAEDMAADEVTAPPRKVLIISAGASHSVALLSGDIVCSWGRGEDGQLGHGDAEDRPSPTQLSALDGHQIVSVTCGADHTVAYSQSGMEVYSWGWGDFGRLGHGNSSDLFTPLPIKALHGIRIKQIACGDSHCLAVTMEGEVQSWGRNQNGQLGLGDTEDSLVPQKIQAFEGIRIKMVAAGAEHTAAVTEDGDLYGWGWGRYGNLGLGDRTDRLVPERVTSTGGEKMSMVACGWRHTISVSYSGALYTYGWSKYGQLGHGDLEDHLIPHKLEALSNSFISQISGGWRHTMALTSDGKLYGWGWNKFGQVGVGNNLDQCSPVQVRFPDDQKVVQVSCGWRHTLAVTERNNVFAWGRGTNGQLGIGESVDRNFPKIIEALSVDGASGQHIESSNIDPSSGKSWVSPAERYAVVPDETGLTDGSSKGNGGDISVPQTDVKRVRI

[4] = molecular target: T1, CONSTITUTIVELY PHOTOMORPHOGENIC 1 (Arabidopsis thaliana); experiment: two-hybrid; yeast PJ69-4a co-transformed with AD and BD vectors, SD -L/-T, 20 h on a 32 °C heating block with 3 μmol m^-2 s^-1 UV-B (0.13 W/m^2); quantified by beta-galactosidase (ONPG) activity
[5] = molecular target: ARIADNE12 (Arabidopsis thaliana) (UniProt Q84RQ9); experiment: as above
[6] = molecular target: T2, UV … LOCUS 8 (Arabidopsis thaliana); experiment: as above

Measured: binding

B1: ARIADNE12 (protein, UniProt Q84RQ9 1-496)
chain: MDNNSVIGSEVDAEADESYVNAALEDGQTGKKSVQRNYATVLTEEDIRALMEIDVQSVSDFTSLSKAEATLLLSHLRWNVDCICKQWSAGAQSVRDSVGLLELDPPSDDNEYFCGACGESHPHKNLASVSCGHRICTRCWTSHINKIISEKPAAEWNLWLKCPVRVGLHASCPASVGLDTIERFASKREKFNYNQYLLRSYVDNRETMKWHPIQGSRCAIDLSPGSGNASVSCHRLVRFCWNCREDAHSPVDCKTAAKWLLENAVPCPKCKLRIPRNQDNSLKMKCLPCNYVFCWFCHVDWIEDMEGTGGDLHFCTFDAVLSDQRGKMSESDSNRYEDCYENWDSNELLMQKEQANLPKLDTIIQELSNTQLENVSQLKFILEAGLQIIECRRVLEWTYVYGYYLREDEVGKQNLLKDTQERLKKFVENLKHCLETNLQPFRYEEEPSKDFNAFRIKLTELTSLTRNHYENVVKDVENGLASVVSEGEASGSGRNQ
binds: [2] | [5]
no binding: all other assays above
